# Experimental data from publication PMC11290997.
# Chains of the proteins cited; added tags and fusions are not shown. Lines headed by an entry give the natural chain unless they say otherwise; changes in a name come on top. A line that says so, or that is headed by a name, gives the form on record, which may keep a tag or linker. Residues count along the entry.
# ΔF508 cystic fibrosis transmembrane conductance regulator (CFTR) (P13569, form named): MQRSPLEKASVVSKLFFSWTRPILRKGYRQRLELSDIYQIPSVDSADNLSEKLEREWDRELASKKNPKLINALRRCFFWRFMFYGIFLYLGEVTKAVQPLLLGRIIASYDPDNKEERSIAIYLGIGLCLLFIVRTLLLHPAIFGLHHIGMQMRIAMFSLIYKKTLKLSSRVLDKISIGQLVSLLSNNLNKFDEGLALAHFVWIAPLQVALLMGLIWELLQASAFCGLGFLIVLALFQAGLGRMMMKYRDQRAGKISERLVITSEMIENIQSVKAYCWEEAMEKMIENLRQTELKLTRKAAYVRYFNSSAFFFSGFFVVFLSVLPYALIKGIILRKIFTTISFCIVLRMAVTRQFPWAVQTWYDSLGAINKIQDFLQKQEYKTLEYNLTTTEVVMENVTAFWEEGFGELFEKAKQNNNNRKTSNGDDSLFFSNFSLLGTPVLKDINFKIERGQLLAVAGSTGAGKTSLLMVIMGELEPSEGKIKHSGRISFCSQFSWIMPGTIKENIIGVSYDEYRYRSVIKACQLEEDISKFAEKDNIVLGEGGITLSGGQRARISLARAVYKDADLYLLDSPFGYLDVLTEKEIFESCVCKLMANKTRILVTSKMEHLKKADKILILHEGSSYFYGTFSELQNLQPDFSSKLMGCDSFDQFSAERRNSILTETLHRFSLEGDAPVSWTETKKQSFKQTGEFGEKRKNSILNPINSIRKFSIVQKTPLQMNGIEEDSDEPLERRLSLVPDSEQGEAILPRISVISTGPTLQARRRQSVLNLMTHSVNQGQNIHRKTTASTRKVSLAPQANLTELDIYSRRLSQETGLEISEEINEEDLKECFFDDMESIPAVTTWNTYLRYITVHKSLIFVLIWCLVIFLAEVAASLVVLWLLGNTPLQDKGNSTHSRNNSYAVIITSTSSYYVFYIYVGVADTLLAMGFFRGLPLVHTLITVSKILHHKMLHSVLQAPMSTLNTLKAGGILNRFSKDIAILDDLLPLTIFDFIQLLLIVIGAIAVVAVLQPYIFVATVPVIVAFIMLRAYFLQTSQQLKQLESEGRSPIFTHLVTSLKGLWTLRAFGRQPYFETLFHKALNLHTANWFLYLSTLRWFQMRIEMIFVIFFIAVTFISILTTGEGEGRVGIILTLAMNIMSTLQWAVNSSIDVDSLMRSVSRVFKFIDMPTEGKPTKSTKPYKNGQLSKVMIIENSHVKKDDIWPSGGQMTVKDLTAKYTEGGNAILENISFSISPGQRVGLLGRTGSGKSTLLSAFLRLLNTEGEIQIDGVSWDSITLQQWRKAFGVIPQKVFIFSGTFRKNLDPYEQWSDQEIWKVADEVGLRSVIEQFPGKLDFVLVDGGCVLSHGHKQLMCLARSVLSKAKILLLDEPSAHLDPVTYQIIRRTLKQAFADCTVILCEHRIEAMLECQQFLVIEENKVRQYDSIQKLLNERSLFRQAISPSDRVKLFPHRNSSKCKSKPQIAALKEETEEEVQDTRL
# UniProt P27824, residues 21-592: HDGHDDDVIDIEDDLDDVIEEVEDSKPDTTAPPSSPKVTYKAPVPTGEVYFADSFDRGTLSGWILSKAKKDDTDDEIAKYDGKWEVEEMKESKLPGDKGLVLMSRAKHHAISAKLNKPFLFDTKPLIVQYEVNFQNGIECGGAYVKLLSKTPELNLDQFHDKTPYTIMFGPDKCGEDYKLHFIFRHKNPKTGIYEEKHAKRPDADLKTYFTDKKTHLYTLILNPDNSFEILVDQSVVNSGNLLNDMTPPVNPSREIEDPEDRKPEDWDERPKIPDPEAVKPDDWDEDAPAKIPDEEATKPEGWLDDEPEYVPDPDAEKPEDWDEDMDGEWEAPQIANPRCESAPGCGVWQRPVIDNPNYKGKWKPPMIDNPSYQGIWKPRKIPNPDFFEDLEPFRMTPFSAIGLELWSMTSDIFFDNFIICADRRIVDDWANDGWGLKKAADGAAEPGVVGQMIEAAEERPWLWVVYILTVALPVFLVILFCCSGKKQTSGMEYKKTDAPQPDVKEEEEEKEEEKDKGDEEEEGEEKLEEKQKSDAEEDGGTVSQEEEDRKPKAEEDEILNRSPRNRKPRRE
# UniProt O75190: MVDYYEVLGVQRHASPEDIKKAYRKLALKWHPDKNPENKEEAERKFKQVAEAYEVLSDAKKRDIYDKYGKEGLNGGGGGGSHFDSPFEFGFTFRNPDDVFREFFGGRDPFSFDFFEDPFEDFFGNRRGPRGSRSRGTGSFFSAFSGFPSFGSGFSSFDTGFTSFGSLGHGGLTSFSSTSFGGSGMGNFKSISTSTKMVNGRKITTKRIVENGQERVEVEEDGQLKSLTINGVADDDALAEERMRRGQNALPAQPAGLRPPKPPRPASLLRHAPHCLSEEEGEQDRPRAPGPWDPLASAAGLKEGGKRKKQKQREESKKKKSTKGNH
# UniProt O95197: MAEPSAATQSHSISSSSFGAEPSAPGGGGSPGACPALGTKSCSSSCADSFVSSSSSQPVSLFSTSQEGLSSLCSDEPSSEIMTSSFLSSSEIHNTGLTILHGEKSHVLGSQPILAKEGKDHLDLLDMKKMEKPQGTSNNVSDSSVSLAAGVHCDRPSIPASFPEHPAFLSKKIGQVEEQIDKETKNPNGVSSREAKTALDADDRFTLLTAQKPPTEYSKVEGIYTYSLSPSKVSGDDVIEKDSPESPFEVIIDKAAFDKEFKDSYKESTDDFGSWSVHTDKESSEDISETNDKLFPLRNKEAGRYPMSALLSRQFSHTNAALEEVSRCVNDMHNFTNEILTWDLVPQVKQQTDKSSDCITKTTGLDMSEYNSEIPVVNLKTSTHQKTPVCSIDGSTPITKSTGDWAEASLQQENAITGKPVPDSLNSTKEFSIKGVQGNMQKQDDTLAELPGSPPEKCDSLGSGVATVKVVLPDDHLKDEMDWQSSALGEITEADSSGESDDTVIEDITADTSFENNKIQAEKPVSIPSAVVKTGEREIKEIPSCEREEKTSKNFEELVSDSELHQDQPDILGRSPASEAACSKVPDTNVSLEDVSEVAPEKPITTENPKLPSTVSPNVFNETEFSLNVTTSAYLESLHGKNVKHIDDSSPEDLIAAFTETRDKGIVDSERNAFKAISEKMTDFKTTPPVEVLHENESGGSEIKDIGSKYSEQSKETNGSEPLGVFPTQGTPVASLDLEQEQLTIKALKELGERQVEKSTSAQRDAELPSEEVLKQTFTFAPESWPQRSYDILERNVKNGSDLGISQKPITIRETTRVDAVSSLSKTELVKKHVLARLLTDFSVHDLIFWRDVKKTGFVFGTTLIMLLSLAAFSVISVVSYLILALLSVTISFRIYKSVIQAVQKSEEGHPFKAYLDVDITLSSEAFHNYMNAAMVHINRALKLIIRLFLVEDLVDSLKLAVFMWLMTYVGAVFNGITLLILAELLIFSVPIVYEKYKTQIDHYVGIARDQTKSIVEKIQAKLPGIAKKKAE
# UniProt P17066: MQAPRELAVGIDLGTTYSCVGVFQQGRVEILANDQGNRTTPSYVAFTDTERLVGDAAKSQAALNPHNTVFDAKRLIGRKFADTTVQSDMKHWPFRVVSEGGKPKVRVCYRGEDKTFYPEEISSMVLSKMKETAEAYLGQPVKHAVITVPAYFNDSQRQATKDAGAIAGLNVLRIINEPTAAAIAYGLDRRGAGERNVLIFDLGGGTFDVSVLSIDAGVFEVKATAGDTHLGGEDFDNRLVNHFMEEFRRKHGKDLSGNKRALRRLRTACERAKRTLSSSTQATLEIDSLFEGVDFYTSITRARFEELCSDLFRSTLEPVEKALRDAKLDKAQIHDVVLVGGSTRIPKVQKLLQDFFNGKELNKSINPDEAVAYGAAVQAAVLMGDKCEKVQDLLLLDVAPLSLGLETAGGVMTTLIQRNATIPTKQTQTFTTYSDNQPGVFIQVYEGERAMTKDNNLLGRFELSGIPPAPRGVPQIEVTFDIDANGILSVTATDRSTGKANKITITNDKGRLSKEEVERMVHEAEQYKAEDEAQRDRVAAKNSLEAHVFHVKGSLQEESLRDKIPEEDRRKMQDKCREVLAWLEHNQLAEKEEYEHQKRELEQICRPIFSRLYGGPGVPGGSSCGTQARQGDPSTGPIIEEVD
# UniProt Q15386: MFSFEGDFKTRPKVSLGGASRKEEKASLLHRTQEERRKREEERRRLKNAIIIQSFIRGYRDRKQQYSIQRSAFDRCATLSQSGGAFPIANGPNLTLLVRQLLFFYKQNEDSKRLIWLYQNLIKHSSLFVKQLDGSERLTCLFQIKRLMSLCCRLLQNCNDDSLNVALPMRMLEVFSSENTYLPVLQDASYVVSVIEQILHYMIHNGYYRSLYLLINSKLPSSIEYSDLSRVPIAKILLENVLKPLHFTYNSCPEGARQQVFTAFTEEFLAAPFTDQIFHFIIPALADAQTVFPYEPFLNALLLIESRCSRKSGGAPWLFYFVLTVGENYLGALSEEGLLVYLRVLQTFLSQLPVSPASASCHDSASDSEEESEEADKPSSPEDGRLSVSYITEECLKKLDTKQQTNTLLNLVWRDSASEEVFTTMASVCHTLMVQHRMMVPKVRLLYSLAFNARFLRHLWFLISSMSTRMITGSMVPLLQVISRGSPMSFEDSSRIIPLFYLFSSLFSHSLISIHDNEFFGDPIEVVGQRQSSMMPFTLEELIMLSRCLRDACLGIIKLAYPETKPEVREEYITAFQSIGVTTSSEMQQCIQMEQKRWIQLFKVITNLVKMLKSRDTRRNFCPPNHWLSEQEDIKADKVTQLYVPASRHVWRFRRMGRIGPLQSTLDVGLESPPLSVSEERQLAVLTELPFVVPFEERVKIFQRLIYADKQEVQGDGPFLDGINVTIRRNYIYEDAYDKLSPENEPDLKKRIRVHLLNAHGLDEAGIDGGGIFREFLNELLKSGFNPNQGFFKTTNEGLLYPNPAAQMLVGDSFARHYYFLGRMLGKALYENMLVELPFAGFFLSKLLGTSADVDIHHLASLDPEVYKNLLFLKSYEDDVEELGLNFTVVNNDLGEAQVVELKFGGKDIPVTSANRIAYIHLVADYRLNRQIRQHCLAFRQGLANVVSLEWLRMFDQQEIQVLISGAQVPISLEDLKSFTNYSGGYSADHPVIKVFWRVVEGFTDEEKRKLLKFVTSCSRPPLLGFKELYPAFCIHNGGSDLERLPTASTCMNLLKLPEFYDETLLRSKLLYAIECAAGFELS
# UniProt Q99613: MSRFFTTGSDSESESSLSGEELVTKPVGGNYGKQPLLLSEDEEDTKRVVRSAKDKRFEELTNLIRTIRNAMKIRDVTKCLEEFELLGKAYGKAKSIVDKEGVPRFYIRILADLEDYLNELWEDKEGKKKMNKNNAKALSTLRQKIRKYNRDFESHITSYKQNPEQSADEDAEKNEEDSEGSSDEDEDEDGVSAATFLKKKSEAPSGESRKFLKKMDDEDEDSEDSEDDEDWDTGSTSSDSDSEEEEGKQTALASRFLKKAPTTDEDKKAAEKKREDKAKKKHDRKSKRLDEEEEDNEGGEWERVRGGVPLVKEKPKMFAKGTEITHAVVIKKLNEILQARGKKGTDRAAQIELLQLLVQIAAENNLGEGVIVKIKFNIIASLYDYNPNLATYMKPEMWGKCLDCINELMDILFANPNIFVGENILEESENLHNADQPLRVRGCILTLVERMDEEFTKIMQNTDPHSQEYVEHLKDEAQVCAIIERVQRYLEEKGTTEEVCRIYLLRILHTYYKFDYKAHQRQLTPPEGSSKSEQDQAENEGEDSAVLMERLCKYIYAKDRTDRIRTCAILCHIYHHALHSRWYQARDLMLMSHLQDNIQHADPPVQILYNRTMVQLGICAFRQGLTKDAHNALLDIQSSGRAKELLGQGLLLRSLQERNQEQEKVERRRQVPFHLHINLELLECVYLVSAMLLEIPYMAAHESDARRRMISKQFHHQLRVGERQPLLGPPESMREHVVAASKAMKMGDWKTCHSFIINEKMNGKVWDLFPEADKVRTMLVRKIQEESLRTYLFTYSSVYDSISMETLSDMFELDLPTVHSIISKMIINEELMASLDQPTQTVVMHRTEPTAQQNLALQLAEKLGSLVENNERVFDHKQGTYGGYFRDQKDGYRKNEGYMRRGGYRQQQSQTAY
# UniProt P49770: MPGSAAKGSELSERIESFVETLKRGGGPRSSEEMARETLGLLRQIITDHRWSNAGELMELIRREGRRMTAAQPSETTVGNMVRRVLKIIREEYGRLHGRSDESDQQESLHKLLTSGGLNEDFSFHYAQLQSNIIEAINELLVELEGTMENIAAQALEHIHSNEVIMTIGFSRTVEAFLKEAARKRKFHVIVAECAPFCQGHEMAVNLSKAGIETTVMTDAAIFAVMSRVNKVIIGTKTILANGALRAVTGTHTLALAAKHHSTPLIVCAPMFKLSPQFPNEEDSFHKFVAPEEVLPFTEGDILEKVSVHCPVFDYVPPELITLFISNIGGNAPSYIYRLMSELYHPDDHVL
# Results are given in words; binding and its absence hold for the method and conditions named. In cells and extracts the contact can be indirect. A yes stands for co-enrichment or nearness to the bait. Other partners may have been found.
# Target: ΔF508 cystic fibrosis transmembrane conductance regulator (CFTR) (human) (UniProt P13569)
# Assay: affinity purification with mass spectrometry; co-IP of untagged CFTR from pre-cleared HEK293T lysates with Protein G beads crosslinked to the 24-1 antibody, overnight at 4°C; TMTpro 16plex LC-MS/MS; interactors filtered against a GFP transfection control; ΔF508 CFTR expressed from the native or the RFmut (silent mutations) transcript
row,binding,Substance
1,binds,CANX (from UniProt P27824 21-592)
2,binds,DNAJB6 (from UniProt O75190 1-326)
3,binds,ER-PHAGY protein RTN3 (from UniProt O95197 1-1032)
4,binds,HspA4 (from UniProt P34932 1-840)
5,binds,HspA6 (from UniProt P17066 1-643)
6,binds,HspB1 (from UniProt P04792 1-205)
7,binds,UBE3C ubiquitin ligase (from UniProt Q15386 1-1083) (enzyme)
8,binds,eIF3c (from UniProt Q99613 1-913)
9,binds,eIF3e (from UniProt P60228 1-445)
10,binds,eiF2B2 (from UniProt P49770 1-351)
